Results published in PubChem BioAssay AID504467 (National Center for Advancing Translational Sciences (NCATS), 2011).
The whole screen tested about 330,000 compounds, of which about 7,700 (2.3%) were called active. This list was built around the results that the source calls inconclusive (neither active nor inactive); the mix of calls is not that of the screen. The call rests on the fitted dose curve; in most records, active means well fitted inhibition curve with a large enough effect; inconclusive means small, poorly fitted or top-dose-only effect, or effect the other way; inactive means flat fitted curve, though single readings scatter. Potencies of inconclusive entries are doubtful fits and often do not repeat.

Assay: qHTS screen for small molecules that inhibit ELG1-dependent DNA repair in human embryonic kidney (HEK293T) cells expressing luciferase-tagged ELG1; further: nearly all actives have a fitted effect of over 55% in size
Settings: HEK293T ELG1-luciferase reporter, luminescence, 16 h, DNA damage induced by 5-fluorouridine; series mostly up to 46.1 µM
Method in brief: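 Overnight (16 hr) co-exposure of 2,000 cells/well to 5-fluorouridine and compound at 37 °C preceded detection. Luciferase was quantified via ONE-Glo luminescence; loss of signal denotes inhibition.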
Potency means the concentration at half of the fitted maximal effect.

SMILES	Potency
CN(C)/C=C/C(=O)c1ccc(Br)s1	inconclusive: 23.1 µM [activator, partial curve]
CC1(C)Oc2ccc3ccc(=O)oc3c2/C(=C/NCCN/C=C2\C(=O)C(C)(C)Oc3ccc4ccc(=O)oc4c32)C1=O	active: 8.2 µM
CC(C)CNC(=O)CSc1ccc(Cl)cc1	inconclusive: 18.4 µM [activator, single point]
Cc1ccc(NS(=O)(=O)c2cccc(C(=O)Nc3c(C)n(C)n(-c4ccccc4)c3=O)c2)cc1	inconclusive: 29.1 µM [inhibitor, single point]
COc1ccnc(Oc2ccc(C)cc2)c1C#N	inconclusive: 16.4 µM [activator, partial curve]
O=C(/C=C/c1ccc(OCCCF)cc1)Nc1ccnc(-c2cccnc2)n1	active: 7.3 µM
Cc1c2cnn(CC(=O)O)c(=O)c2c(C)n1Cc1ccccc1	inactive
Nc1nonc1-n1nnc(C(=O)N/N=C/c2ccccc2Cl)c1CN1CCOCC1	inactive
Cc1cc(C(F)(F)F)n2nc(C(=O)O)c(Cl)c2n1	inactive
Cc1c(Cl)cnc(NC(=O)CSc2n[nH]c(N)n2)c1Cl	inactive
COc1ccc(NC(=O)/C(C#N)=C/c2ccc(-c3ccccc3C(=O)O)o2)cc1	inactive
COc1ccc(NS(=O)(=O)c2cccc(NC(=O)c3ccccn3)c2)cc1	inconclusive: 16.4 µM [inhibitor, partial curve]
Cn1c(=O)c2c(nc(SCCN3CCCCC3)n2Cc2ccc(Cl)cc2)n(C)c1=O	inconclusive: 10.3 µM [inhibitor, partial curve, poor fit]
COc1ccc(/C=C/C(=O)Nc2ccccc2C)cc1S(=O)(=O)N1CCOCC1	inconclusive: 18.3 µM [inhibitor, partial curve]
CCOc1c2ccc(C(=O)NCc3ccc(C(F)(F)F)cc3C(F)(F)F)cc2nn1C	inconclusive: 7.31 µM [inhibitor, partial curve, poor fit]
Nn1c(SCC(=O)Nc2ccccc2F)nc2ccccc2c1=O	inconclusive: 18.4 µM [inhibitor, partial curve, poor fit]
Cc1cccc(C(=O)NNC2=C(C(=O)C(F)(F)F)CCC2)c1O	active: 20.6 µM
Cc1cc(=O)[nH]c(SCc2cn3ccccc3n2)n1	inconclusive: 18.3 µM [activator, single point]
O=C(Nc1cccc(-n2cnnn2)c1)c1ccoc1COc1ccc(Cl)cc1	inconclusive: 16.4 µM [inhibitor, partial curve, poor fit]
CC(C)(CO)NC(=O)CCCOc1ccc(Cl)cc1Cl	inconclusive: 18.4 µM [activator, partial curve]
O=C(CC1N=C2c3ccccc3N=C(SCc3ccccc3Cl)N2C1=O)NCc1ccco1 (configuration not stated)	inconclusive: 2.91 µM [activator, partial curve]
COc1ccc(CCC(C)NCc2ccc(F)cc2)cc1 (configuration not stated)	inactive
CCOc1ccc(C(=O)N/N=C(\c2ccccc2)c2ccccn2)cc1	inconclusive: 29.1 µM [activator, single point]

4 records picked at random from those above:
SMILES	Potency
CC(C)CNC(=O)CSc1ccc(Cl)cc1	inconclusive: 18.4 µM [activator, single point]
Cc1ccc(NS(=O)(=O)c2cccc(C(=O)Nc3c(C)n(C)n(-c4ccccc4)c3=O)c2)cc1	inconclusive: 29.1 µM [inhibitor, single point]
COc1ccc(NC(=O)/C(C#N)=C/c2ccc(-c3ccccc3C(=O)O)o2)cc1	inactive
Cn1c(=O)c2c(nc(SCCN3CCCCC3)n2Cc2ccc(Cl)cc2)n(C)c1=O	inconclusive: 10.3 µM [inhibitor, partial curve, poor fit]

A run of entries from further up, as a working copy:
SMILES	Potency
O=C(CC1N=C2c3ccccc3N=C(SCc3ccccc3Cl)N2C1=O)NCc1ccco1 (configuration not stated)	inconclusive: 2.91 µM [activator, partial curve]
COc1ccc(CCC(C)NCc2ccc(F)cc2)cc1 (configuration not stated)	inactive

(continued)

SMILES	Potency
Cc1cc(O)c2c(C)c(CC(=O)N3CCN(C(=O)C4COc5ccccc5O4)CC3)c(=O)oc2c1 (configuration not stated)	inconclusive: 6.51 µM [activator, single point]
CCCCC(=O)Nc1nnn(CCC)n1	inactive
CCCSc1ccc([C@H]2N[C@@](C)(C(=O)OC)[C@H]3C(=O)N(C)C(=O)[C@@H]23)cc1OC	inconclusive: 18.3 µM [activator, single point]
Cc1nn(C)cc1/C=N/NC(=O)c1sc2ccccc2c1Cl	inconclusive: 20.6 µM [inhibitor, partial curve]
O=C(c1ccc(S(=O)(=O)NCC2CCCO2)cc1)N1CCN(c2cccc(Cl)c2)CC1 (configuration not stated)	active: 9.2 µM
Cn1c(-c2nnn(-c3ccc(F)cc3)n2)cc2ccccc21	inconclusive: 8.2 µM [activator, partial curve]
COc1ccc2c(c1)CCc1c(C(=O)NCC(C)C)noc1-2	inconclusive: 3.66 µM [activator, full curve]
C[C@@]12C(=O)Nc3ccccc3C(=O)N1[C@H]1c3cc(Br)ccc3OC[C@@H]1[C@@H]2c1ccccc1	inconclusive: 3.16 µM [inhibitor, single point]
Cc1cc(Nc2cccc(Cl)c2)n2ncnc2n1	inconclusive: 16.4 µM [activator, single point]
COc1ccccc1-c1nc(-c2ccc(Br)o2)no1	inconclusive: 2.31 µM [activator, full curve]
CCOc1cnc(-c2ccc(Cl)cc2)o1	inconclusive: 18.4 µM [activator, partial curve]
CCOC(=O)CC1COc2ccccc2N1C(=O)c1ccc(C)cc1 (configuration not stated)	inactive
CC(C)(C)C(=O)COC(=O)c1cccc(NC(=O)c2ccco2)c1	inconclusive: 4.61 µM [activator, full curve]
O=C(CSc1nncs1)Nc1ccc(Cl)cc1C(F)(F)F	inconclusive: 8.2 µM [activator, partial curve, poor fit]
COc1ccc(-c2cn(-c3ccccc3)c3[n+]2CCS3)cc1	inconclusive: 4.61 µM [inhibitor, partial curve, poor fit]
Cc1nc(-c2ccc(F)cc2)c(CC(=O)N(C)CC(=O)Nc2c(C)cccc2C)s1	inconclusive: 16.4 µM [activator, partial curve, poor fit]
NC1=NC[C@H](Cc2ccc(O)cc2)N1CCCCC1CCCCC1	inconclusive: 29.1 µM [inhibitor, single point]
CC(=O)c1cccc(NC(=O)C(C)OC(=O)c2ccc3ncsc3c2)c1 (configuration not stated)	inconclusive: 25.9 µM [inhibitor, partial curve, poor fit]
CCCCCc1cc(=O)oc2c(C(CCN3CCN(c4ccccc4)CC3)c3ccc(N(C)C)cc3)c(OC)cc(OC)c12 (configuration not stated)	inconclusive: 29.1 µM [inhibitor, single point]
Cc1ccccc1COc1cccc(/C=N/NC(=O)c2nnn(-c3nonc3N)c2C)c1	inconclusive: 23.1 µM [activator, single point]
O=C(COC(=O)CNC(=O)c1ccc(Cl)c([N+](=O)[O-])c1)NNC(=O)c1ccccc1F	inactive
CC(=O)c1cccc(Nc2nc(N3CCOCC3)nc(N3CCOCC3)n2)c1	inconclusive: 1.16 µM [inhibitor, full curve]
Cc1cc(/C=C(\C#N)C(=O)Nc2ccc(Cl)cc2)c(C)n1-c1ccc(N2CCOCC2)c([N+](=O)[O-])c1	inconclusive: 6.51 µM [inhibitor, single point]

SMILES	Potency
C/C(N)=C(/C#N)C(=O)CSc1nc2ccccc2c(=O)n1-c1ccc(C)cc1	active: 7.31 µM
COc1ccc(C(=S)Nc2ccc(C)cc2)cc1	inconclusive: 10.3 µM [activator, partial curve]
CN1CCN(c2nc(-c3ccccc3O)nc3ccccc23)CC1	inconclusive: 20.6 µM [inhibitor, partial curve]
CCOC(=O)c1c(Nc2ccccc2)sc(/C=C2\C=Nc3ccccc32)c1O	inactive
Cc1cccc(NC(=S)NC(NC(=O)OCc2ccccc2)C(Cl)(Cl)Cl)c1 (configuration not stated)	inactive
O=C(CC1NCCNC1=O)OCCCc1ccccc1 (configuration not stated)	inconclusive: 18.4 µM [activator, partial curve, poor fit]
Brc1ccc(OCCCN2CCOCC2)cc1	inconclusive: 16.4 µM [activator, single point]
COc1ccc(NC(=O)C2CCCN(S(=O)(=O)c3ccc(Cl)cc3)C2)cc1OC (configuration not stated)	inconclusive: 29.1 µM [inhibitor, single point]
CCCc1cc(=O)[nH]c(SCC(=O)Nc2nc(-c3ccccc3)cs2)n1	inactive
C=CCn1cnc2c(c1=O)c1nc3ccccc3nc1n2/N=C/c1ccccn1	active: 11.6 µM
Cc1ccc(/C=C/C2=NN(Cc3ccccc3Cl)C(=O)CC2)cc1	inconclusive: 25.9 µM [inhibitor, single point]
O=C(OCC(=O)N(C1CCCCC1)C1CCCCC1)c1ccccc1O	inconclusive: 16.4 µM [inhibitor, partial curve, poor fit]
O=C(NCCOc1ccccc1F)c1cccc(S(=O)(=O)N2CCN(c3ccccc3)CC2)c1	inconclusive: 29.1 µM [inhibitor, single point]
CC1C/C(=N/NC(=O)c2ccc(CSc3nc4ccccc4[nH]3)cc2)CC(C)(C)C1 (configuration not stated)	inactive
Cc1ccc(COC(=O)c2cccc(S(=O)(=O)N3CCCCCC3)c2)cc1	inconclusive: 29.1 µM [inhibitor, single point]
Cc1nc(SCC(=O)c2ccc(F)c(F)c2)[nH]c(=O)c1Oc1ccc(F)cc1	inconclusive: 6.51 µM [inhibitor, single point]
Cc1[nH]c2ccccc2c1C(=O)COc1ccccc1	inconclusive: 14.6 µM [activator, partial curve]
Cc1ccc(NC(=O)c2ccc(NCCCN3CCC(C)CC3)c([N+](=O)[O-])c2)c(C)c1	inactive
O=C(CC(Nc1ccccc1)C(=O)O)c1ccccc1 (configuration not stated)	inconclusive: 4.11 µM [activator, full curve]
NC(=O)C1=NOC(CNc2ncc(C(F)(F)F)cc2Cl)C1 (configuration not stated)	inconclusive: 18.4 µM [activator, partial curve]
NN(CCO)C(=S)Nc1ccc(Cl)cc1	inconclusive: 32.6 µM [activator, partial curve, poor fit]
